No constants are given. Whether binding was seen depends on the method and setting. Binding seen in cells or lysates may run through a third protein. Some entries that bind do so weakly or less than the wild type. Tags and fused reporters may be left off the sequences shown.
Assays:
[1] = target: T1, misfolded hnRNP M1 protein generated by sodium arsenite treatment (UniProt P52272); assay: co-immunoprecipitation with anti-FLAG M2 gel from sodium arsenite-treated A549 lysates, immunoblot
T1 sequence (looked up): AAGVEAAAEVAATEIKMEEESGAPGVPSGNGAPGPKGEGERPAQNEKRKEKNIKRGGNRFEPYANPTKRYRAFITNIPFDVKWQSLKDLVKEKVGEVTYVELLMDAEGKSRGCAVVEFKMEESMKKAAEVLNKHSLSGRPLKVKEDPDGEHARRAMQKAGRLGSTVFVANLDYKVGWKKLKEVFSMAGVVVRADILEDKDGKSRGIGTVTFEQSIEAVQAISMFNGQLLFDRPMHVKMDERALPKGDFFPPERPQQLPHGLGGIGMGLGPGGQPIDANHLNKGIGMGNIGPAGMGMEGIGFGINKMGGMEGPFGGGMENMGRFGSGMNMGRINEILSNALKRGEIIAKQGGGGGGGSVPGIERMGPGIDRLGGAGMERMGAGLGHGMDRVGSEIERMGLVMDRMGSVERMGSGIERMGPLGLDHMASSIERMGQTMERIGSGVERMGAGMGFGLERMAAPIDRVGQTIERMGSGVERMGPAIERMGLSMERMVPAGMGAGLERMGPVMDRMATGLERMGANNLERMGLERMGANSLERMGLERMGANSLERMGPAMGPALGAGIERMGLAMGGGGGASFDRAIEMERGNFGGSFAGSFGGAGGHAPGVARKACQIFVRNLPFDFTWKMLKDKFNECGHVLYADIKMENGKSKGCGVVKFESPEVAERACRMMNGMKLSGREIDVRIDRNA

Sequences of proteins named here, by UniProt entry; tags and fusion partners are left off.
UniProt Q13148: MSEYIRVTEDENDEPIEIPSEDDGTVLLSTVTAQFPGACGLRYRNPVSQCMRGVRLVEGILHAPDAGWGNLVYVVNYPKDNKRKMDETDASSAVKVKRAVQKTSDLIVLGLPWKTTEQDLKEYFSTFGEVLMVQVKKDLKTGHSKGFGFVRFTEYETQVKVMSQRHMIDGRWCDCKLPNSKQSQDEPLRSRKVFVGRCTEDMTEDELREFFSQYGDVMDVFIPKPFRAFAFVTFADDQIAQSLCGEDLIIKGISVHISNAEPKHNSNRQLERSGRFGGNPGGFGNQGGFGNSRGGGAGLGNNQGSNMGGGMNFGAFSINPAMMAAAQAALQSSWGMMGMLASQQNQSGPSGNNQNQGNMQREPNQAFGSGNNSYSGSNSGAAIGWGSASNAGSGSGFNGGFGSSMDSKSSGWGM

[2] = target: misfolded TDP43 protein generated by sodium arsenite treatment (UniProt Q13148); assay: as above
[3] = target: HA-tagged Fluc-DM (Fluc-HA-DM) (firefly) [luciferase: P08659]; assay: co-immunoprecipitation with anti-FLAG M2 gel from HeLa lysates, immunoblot
[4] = target: T1, misfolded hnRNP M1 protein generated by sodium arsenite treatment; assay: FLAG-LONRF2 pull-down assay (FLAG-LONRF2 beads from SF9 cells) on A549 lysates, immunoblot
[5] = target: misfolded TDP43 protein generated by sodium arsenite treatment (UniProt Q13148); assay: as above

Measured: binding

B1: FLAG-LONRF2-WT (enzyme, not shown: small tags and cut ends)
chain: MSPEPVPPPPPPQCPGCDRAEPIAQRLEEGDEAFRAGDYEMAAELFRSMLAGLAQPDRGLCLRLGDALARAGRLPEALGAFRGAARLGALRPEELEELAGGLVRAVGLRDRPLSAENPGGEPEAPGEGGPAPEPRAPRDLLGCPRCRRLLHKPVTLPCGLTVCKRCVEPGPARPQVRRVNVVLSGLLEKCFPAECRLRRLAGQARSLQRQQQPEAALLRCDQALELAPDDNSLLLLRAELYLTMKNYEQALQDASAACQNEPLLIKGHQVKAQALSGLGRSKEVLKEFLYCLALNPECNSVKKEAQKVMCEVLFSATANVHENLTSSIQSRLKAQGHSHMNAQALLEEGDAGSSENSSEKSDMLGNTNSSVLYFILGLHFEEDKKALESILPTAPSAGLKRQFPDDVEDAPDLNAPGKIPKKDLSLQRSPNSETEESQGLSLDVTDFECALCMRLLFEPVTTPCGHTFCLKCLERCLDHAPHCPLCKDKLSELLASRNFNITVLAEELIFRYLPDELSDRKRIYDEEMSELSNLTRDVPIFVCAMAFPTVPCPLHVFEPRYRLMIRRCMETGTKRFGMCLSAEHAGLSEYGCMLEIKDVRTFPDGSSVVDAIGISRFRVLSHRHRDGYNTADIEYLEDEKVEGPEYEELAALHDSVHQQSVSWFASLQDRMKEQILSHFGVMPDREPEPQSNPSGPAWSWWILAVLPLERKAQLAILGMTSLKERLLAIRRILVIITRKMNSRQELANARERNN
binds: [1] | [2] | [3] | [4] | [5]

Reference: patent publication US20260043817A1
